{
  "source": "patent US20070104714A1",
  "about": "“Composition and method for the treatment of cancer and other physiologic conditins based on modulation of the ppar-gamma pathway and her-kinase axis” (CEDARS-SINAI MEDICAL CENTER, priority 2003, published 2007)",
  "tested_on": "NIH3T3-PPARγ cells",
  "experiment": "Neutral lipid accumulation (Oil Red O) in NIH3T3 cells expressing recombinant PPARγ",
  "type": "cell-based, mouse",
  "protocol": "Third, PPARγ is accepted as a master regulator of adipocyte differentiation. […] NIH3T3 cells that stably overexpress retrovirally expressed recombinant PPARγ were obtained from Dr. Ronald Evans (Salk Institute, La Jolla, Calif.). […] NIH3T3 cells stably expressing recombinant PPARγ (obtained from Dr. Ronald Evans of the Jonas Salk Institute; San Diego, Calif.) were maintained in DMEM supplemented with 10% BCS, 100 μg/ml penicillin and 100 μg/ml streptomycin (obtained from GIBCO; Grand Island, N.Y.). The cells were treated for seven days with the indicated compounds and concentrations and stained for neutral lipids with Oil Red O as described by Green and Kehinde (“Sublines of mouse 3T3 cells that accumulate lipid,” Cell, Vol. 1, p. 113-116 (1974)).",
  "note": "At least one compound was matched to its structure with a doubt left.",
  "data": [
    {"compound": "Cc1c(C)c2c(c(C)c1O)CCC(C)(COc1ccc(CC3SC(=O)NC3=O)cc1)O2", "note": "(stereo not shown) [troglitazone]", "values": [
      {"measurement": "Lipid uptake in NIH3T3 cells transfected with the empty retroviral vector", "result": "did not demonstrate the lipid uptake"}
    ]}
  ]
}
